In all, about 360,000 compounds went through this assay and about 7,500 (2.1%) were called active. This list was built around the results that the source calls inconclusive (neither active nor inactive); the mix of calls is not that of the screen. Calls come from the whole dose curve; as a rule, active = well fitted inhibition curve with a large enough effect; inconclusive = small, poorly fitted or top-dose-only effect, or effect the other way; inactive = flat fitted curve, though single readings scatter. Potencies beside an inconclusive call are fits to weak or partial responses and may not hold up.
Assay: Nrf2 qHTS screen for inhibitors; note: nearly all actives have a fitted effect of over 60% in size
Settings: A549 ARE-Fluc reporter, luciferase luminescence, 18-24 h; series mostly up to 46 µM
In short: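 Quantitative HTS in A549 cells stably bearing an antioxidant response element-firefly luciferase construct. Inhibition of Nrf2-driven transcription was scored by luminescence after 18-24 h of compound exposure at 37 °C.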
Potency is the fitted concentration of half-maximal effect.

Structure (SMILES)	Potency
O=C(CNC(=O)c1ccc(Br)o1)Nc1cccc(S(=O)(=O)N2CCCC2)c1	inconclusive: 29.1 µM [falling, single point]
COc1cc(C(=O)Nn2cnnc2)ccc1OC(F)F	inactive
Cc1cccc(-c2noc(-c3ccccc3NC(=O)C3CC(=O)N(c4ccccc4C)C3)n2)c1 (stereo not drawn)	inactive
O=S1(=O)CCN(c2ccccc2CC(c2c[nH]c3ccccc23)c2c[nH]c3ccccc23)CC1	inconclusive: 29.1 µM [falling, single point]
CCn1c(=O)c2cc(C(=O)Nc3cc(OC)c(OC)c(OC)c3)sc2c2ccccc21	inconclusive: 1.16 µM [falling, full curve, poor fit]
O=C(N/N=C/c1ccccn1)c1cc(Br)ccc1O	inconclusive: 14.6 µM [falling, partial curve]
Cc1ccc(S(=O)(=O)SC/C=C/CSS(=O)(=O)c2ccc(C)cc2)cc1	active: 11.6 µM
Cc1ccc(S(=O)(=O)N2[C@@H](c3ccc(Cl)c(Cl)c3)C(C(=O)O)=C[C@H]2CC2CCCC2)cc1	inconclusive: 16.4 µM [falling, partial curve, poor fit]
COc1cc(OC)cc(-c2c(-c3ccc(F)cc3)c3cc(-c4ccc5c(c4)OCCO5)ccc3n2C)c1	inconclusive: 14.6 µM [falling, single point]
COC(=O)/C(C#N)=C\c1c(OC)[nH]c2ccccc12	inconclusive: 14.6 µM [falling, partial curve, poor fit]
O=C(NCc1ccccc1)[C@]1(C(F)(F)F)C[C@H](CCc2ccccc2)CCCO1	inactive
COc1ccc(C2CC(c3ccccc3)=NN2C(=O)COC(=O)/C=C/c2ccc(O)c(OC)c2)cc1 (stereo not drawn)	inconclusive: 29.1 µM [falling, single point]
Cc1cccc(CNS(=O)(=O)c2ccc(-c3cnc(C4CC4)o3)cc2)c1	inconclusive: 20.6 µM [falling, single point]
CC1CCN(CC(=O)Nc2ccccc2C(=O)c2ccccc2)CC1	inconclusive: 20.6 µM [activator, single point]
O=C(Nc1nnc(-c2cccc(F)c2)s1)Nc1ccccc1F	inconclusive: 29.1 µM [activator, single point]
CCc1nnc(SCc2c(F)cccc2Cl)c2cc3sccc3n12	inconclusive: 18.4 µM [falling, partial curve]
CC(C)CCNC(=O)c1ccc2c(c1)NC(=O)C(CS(=O)(=O)Cc1ccc(F)cc1)N2 (stereo not drawn)	inactive
COc1ccc(C2CC(c3cccs3)=NN2C(=O)CN2CCCCC2)cc1 (stereo not drawn)	inconclusive: 9.2 µM [activator, partial curve]

As a short view, 2 of the compounds above:
Structure (SMILES)	Potency
O=S1(=O)CCN(c2ccccc2CC(c2c[nH]c3ccccc23)c2c[nH]c3ccccc23)CC1	inconclusive: 29.1 µM [falling, single point]
CCn1c(=O)c2cc(C(=O)Nc3cc(OC)c(OC)c(OC)c3)sc2c2ccccc21	inconclusive: 1.16 µM [falling, full curve, poor fit]

From PubChem BioAssay AID504444 (National Center for Advancing Translational Sciences (NCATS), 2011)
